Laboratory results taken from paper PMC10799905.
No constants are given. Whether binding was seen depends on the method and setting. Binding seen in cells or lysates may run through a third protein. Some binding calls cover weakened binding; strength is not graded here.

Chains of the proteins cited; added tags and fusions are not shown.
UniProt Q9Y572: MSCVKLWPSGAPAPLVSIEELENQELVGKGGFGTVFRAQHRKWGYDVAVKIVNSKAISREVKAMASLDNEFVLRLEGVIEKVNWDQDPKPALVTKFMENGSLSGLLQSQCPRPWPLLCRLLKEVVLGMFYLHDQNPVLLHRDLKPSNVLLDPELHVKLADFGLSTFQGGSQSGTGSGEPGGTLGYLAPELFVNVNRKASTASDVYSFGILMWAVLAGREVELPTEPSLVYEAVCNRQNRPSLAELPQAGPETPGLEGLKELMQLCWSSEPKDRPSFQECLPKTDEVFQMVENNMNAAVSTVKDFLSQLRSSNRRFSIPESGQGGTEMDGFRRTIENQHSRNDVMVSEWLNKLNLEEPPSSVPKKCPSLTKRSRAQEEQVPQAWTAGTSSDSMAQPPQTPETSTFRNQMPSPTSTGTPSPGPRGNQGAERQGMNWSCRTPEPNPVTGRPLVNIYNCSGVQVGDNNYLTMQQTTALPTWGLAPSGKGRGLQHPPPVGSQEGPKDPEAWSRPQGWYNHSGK
UniProt Q13546: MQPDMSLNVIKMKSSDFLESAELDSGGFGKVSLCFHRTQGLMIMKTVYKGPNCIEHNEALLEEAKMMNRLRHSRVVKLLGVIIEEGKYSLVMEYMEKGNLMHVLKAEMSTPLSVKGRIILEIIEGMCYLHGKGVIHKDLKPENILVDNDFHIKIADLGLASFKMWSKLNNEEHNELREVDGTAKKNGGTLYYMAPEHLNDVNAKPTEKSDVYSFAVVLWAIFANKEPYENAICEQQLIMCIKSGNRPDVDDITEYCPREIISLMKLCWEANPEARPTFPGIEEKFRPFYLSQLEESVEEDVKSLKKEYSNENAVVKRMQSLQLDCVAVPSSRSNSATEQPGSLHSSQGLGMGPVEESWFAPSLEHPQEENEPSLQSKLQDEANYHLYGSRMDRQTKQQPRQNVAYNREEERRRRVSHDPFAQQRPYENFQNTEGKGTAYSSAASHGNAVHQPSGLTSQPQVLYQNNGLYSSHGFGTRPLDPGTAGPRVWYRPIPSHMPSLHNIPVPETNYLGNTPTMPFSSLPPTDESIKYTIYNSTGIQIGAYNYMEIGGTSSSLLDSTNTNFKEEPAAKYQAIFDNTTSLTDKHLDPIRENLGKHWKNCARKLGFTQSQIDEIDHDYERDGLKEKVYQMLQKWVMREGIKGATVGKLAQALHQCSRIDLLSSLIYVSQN

Biological target: Strep-tagged RIPK3 wild-type (WT) (UniProt Q9Y572)
Assay: co-IP; Strep-RIPK3 precipitated on MagStrep type3 XT beads from 1% NP-40 lysates, overnight 4 °C; RIPK3 KO HT-29 cells with Dox-induced Strep-RIPK3, TBZ 3 h, with or without HOIPIN-8 (30 µM)

binding: binds
Substance: RIPK1 phosphorylated at S166 (from UniProt Q13546 1-671)
